For one compound, EC50 results are on record in article PMC11145868, “Protein target similarity is positive predictor of in vitro antipathogenic activity: a drug repurposing strategy for Plasmodium falciparum” (Journal of Cheminformatics, 2024).

This experiment concerns P. falciparum Dd2-HLH. As to the kind of experiment: microbe, parasite or virus in culture. Particulars: Plasmodium falciparum, DD2, 72 h, read-out: Blood stage 72h EC50. The class given is cell-based.

Usually EC50 stands for the concentration giving half of the maximal effect. For `CO[C@@H]1[C@H](N(C)C(=O)c2ccccc2)C[C@H]2O[C@]1(C)n1c3ccccc3c3c4c(c5c6ccccc6n2c5c31)C(=O)NC4` [Midostaurin], the 50% effective concentration (EC50) is 0.417 µM.
